Assay results reported in PubChem BioAssay AID330 (DTP/NCI, 2004).
The list does not hold the whole screen: it gathers tests that were run many times, whatever their T/C, doses with no T/C, and many T/C values between a quarter and a half above the control. Other doses and runs of a compound stand elsewhere. T/C gives the treated animals as a percentage of the vehicle group. Some doses have a count of surviving animals in place of a T/C: the source holds a T/C of zero for them, seemingly a mark for toxic or unscored doses. Some doses without a T/C left all or most animals alive at the check, yet need not have been tolerated: survival well below the control is almost never listed, so the zero probably covers shortened survival too. Counts of survivors are from the toxicity check (mostly the fifth day) where no day follows; animals may have died later. Schedules are NCI's codes, taken here to give the interval after Q, in days (D) or hours (H), and the number of doses after X. Some molecules as drawn cover several salts, stereoisomers or complexes of the source; a dose is that of the sample tested. Some doses were run more than once; their values stand side by side, smallest first. Where survival is the endpoint, this PubChem deposit counts one and a half times the control or more as active, and values a quarter to a half above the control carry no call in these data; other NCI protocols may use other cut-offs. Some T/C values are followed by the survivors on the day toxicity was checked, most often the fifth; where none is given, no animal had died by that day. Additions like (4×) stand for listed records that agree.

System: P388 leukemia ip, CD2F1 mice, survival T/C
Assay: NCI In Vivo Anticancer Drug Screen. Data for tumor model P388 Leukemia (intraperitoneal) in CD2F1 (CDF1) mice
Settings: T/C endpoint: median survival time, higher T/C = longer survival
[1] = dose: 32.0 mg/kg/injection, schedule: Q01DX009 (ip), vehicle: distilled water + Tween-80
[2] = dose: 50.0 mg/kg/injection, schedule: Q01DX001 (ip), vehicle: Klucel (hydroxypropylcellulose) (HPC)
[3] = dose: 60.0 mg/kg/injection, schedule: Q04DX003 (ip), vehicle: Klucel (hydroxypropylcellulose) (HPC)

COc1cc2c[n+](C)c3c4cc5c(cc4ccc3c2cc1OC)OCO5
survivor count (dose: 20.0 mg/kg/injection, schedule: Q01DX009 (ip), vehicle: water): 5 of 6 and 6 of 6 | T/C (dose: 25.92 mg/kg/injection, schedule: Q04DX003 (ip), vehicle: distilled water + Tween-80): 130 % of control | T/C (dose: 30.0 mg/kg/injection, schedule: Q04DX002 (ip), vehicle: Klucel (hydroxypropylcellulose) (HPC), evaluated on day 30): 100, 117, 126 [5 of 6 alive], 128, 132, 133, 135, 137, 138, 139, 140, 141, 142, 147 (2×), 149, 151, 153, 154, 158, 159 (3×), 160 (3×), 164, 165, 169, 173, 174 % of control | T/C (dose: 30.0 mg/kg/injection, schedule: Q04DX002 (ip), vehicle: Klucel (hydroxypropylcellulose) (HPC), evaluated on day 35): 128, 136, 149 % of control | survivor count (dose: 30.0 mg/kg/injection, schedule: Q04DX002 (ip), vehicle: Klucel (hydroxypropylcellulose) (HPC)): 3 of 3 and 6 of 6 | T/C (dose: 30.0 mg/kg/injection, schedule: Q04DX003 (ip), vehicle: Klucel (hydroxypropylcellulose) (HPC)): 129, 135, 138, 141 (2×), 143 (2×), 144, 146 (2×), 147, 148 (2×), 151 (2×), 152 (2×), 153 (2×), 154, 155 (2×), 156, 158, 159, 160, 161, 165, 168, 171, 175, 176, 182, 186 % of control | T/C (dose: 32.0 mg/kg/injection, schedule: Q01DX001 (ip), vehicle: saline with Tween-80): 138 % of control | T/C (dose: 32.0 mg/kg/injection, schedule: Q01DX005 (ip), vehicle: distilled water + Tween-80): 139 % of control | T/C [1]: 119, 136, 172 % of control [4 of 6 alive] | survivor count [1]: 4 of 6 and 5 of 6 | survivor count (dose: 32.0 mg/kg/injection, schedule: Q01DX009 (ip), vehicle: water): 7 of 10 | survivor count (dose: 32.0 mg/kg/injection, schedule: Q01DX009 (sc), vehicle: water): 10 of 10 | survivor count (dose: 32.0 mg/kg/injection, schedule: Q03HX008 (ip), vehicle: water): 0 of 10 | T/C (dose: 32.0 mg/kg/injection, schedule: Q04DX003 (ip), vehicle: other): 149 % of control | T/C (dose: 32.0 mg/kg/injection, schedule: Q04DX003 (ip), vehicle: saline with Tween-80): 138 % of control | T/C (dose: 32.0 mg/kg/injection, schedule: Q08DX002 (ip), vehicle: saline with Tween-80): 144 % of control | T/C (dose: 40.0 mg/kg/injection, schedule: Q01DX005 (ip), vehicle: Klucel (hydroxypropylcellulose) (HPC), evaluated on day 30): 89, 101, 102, 103 (2×), 108, 109, 114, 122, 123, 127, 132, 134, 135, 139, 141, 145, 146, 153, 155, 157, 162, 168 [4 of 6 alive], 169, 173, 176, 179 [5 of 6 alive], 189, 209 % of control | T/C (dose: 40.0 mg/kg/injection, schedule: Q01DX005 (ip), vehicle: Klucel (hydroxypropylcellulose) (HPC), evaluated on day 35): 187 % of control | survivor count (dose: 40.0 mg/kg/injection, schedule: Q01DX005 (ip), vehicle: Klucel (hydroxypropylcellulose) (HPC)): 3 of 3 and 6 of 6 | T/C (dose: 40.0 mg/kg/injection, schedule: Q01DX009 (ip), vehicle: Klucel (hydroxypropylcellulose) (HPC), evaluated on day 30): 87, 88, 90 (2×), 91, 94, 96 (2×), 97 (2×), 102 (2×), 103, 106 (2×), 107 (2×), 108 (2×), 111 (2×), 116, 121, 127, 135, 141, 149, 151, 156, 171, 172 % of control | T/C (dose: 40.0 mg/kg/injection, schedule: Q01DX009 (ip), vehicle: Klucel (hydroxypropylcellulose) (HPC), evaluated on day 35): 110 and 126 % of control | survivor count (dose: 40.0 mg/kg/injection, schedule: Q01DX009 (ip), vehicle: Klucel (hydroxypropylcellulose) (HPC)): 4 of 6 and 3 of 3 | survivor count (dose: 40.0 mg/kg/injection, schedule: Q01DX009 (ip), vehicle: water): 3 of 6, 5 of 8, 4 of 6, 5 of 6, 7 of 8, 6 of 6 | T/C (dose: 43.2 mg/kg/injection, schedule: Q04DX003 (ip), vehicle: distilled water + Tween-80): 130 % of control | T/C [2]: 108, 110, 117, 130, 133, 136, 138 (2×), 138 [5 of 6 alive], 139 (2×), 140, 142, 145, 147, 150 (3×), 151 (2×), 152, 153 (3×), 158, 160, 162, 166, 167, 168, 172 % of control | survivor count [2]: 6 of 6 | survivor count (dose: 50.0 mg/kg/injection, schedule: Q01DX009 (ip), vehicle: saline with Tween-80): 6 of 6 | survivor count (dose: 50.0 mg/kg/injection, schedule: Q01DX009 (ip), vehicle: water): 2 of 10 and 3 of 10 | T/C (dose: 50.0 mg/kg/injection, schedule: Q04DX002 (ip), vehicle: Klucel (hydroxypropylcellulose) (HPC)): 144 and 149 % of control | T/C (dose: 60.0 mg/kg/injection, schedule: Q04DX002 (ip), vehicle: Klucel (hydroxypropylcellulose) (HPC), evaluated on day 30): 103, 108, 130, 137, 142, 145, 146, 148, 149, 150, 151, 155 (3×), 157, 157 [2 of 3 alive], 159, 161, 163, 165 (2×), 169 (2×), 174, 176, 178, 179, 195, 200, 221 % of control | T/C (dose: 60.0 mg/kg/injection, schedule: Q04DX002 (ip), vehicle: Klucel (hydroxypropylcellulose) (HPC), evaluated on day 35): 157, 166, 186 % of control | survivor count (dose: 60.0 mg/kg/injection, schedule: Q04DX002 (ip), vehicle: Klucel (hydroxypropylcellulose) (HPC)): 3 of 6, 3 of 3, 6 of 6 | T/C [3]: 122 [2 of 3 alive], 128, 131, 141, 142 (2×), 143, 145, 146, 147, 148, 152, 154 (3×), 158, 160, 161, 162 (2×), 163, 172, 174, 175, 176, 179, 182, 185, 187 (2×), 189, 195, 199 % of control | survivor count [3]: 3 of 3 | T/C (dose: 64.0 mg/kg/injection, schedule: Q01DX001 (ip), vehicle: saline with Tween-80): 138 % of control | survivor count (dose: 64.0 mg/kg/injection, schedule: Q01DX005 (ip), vehicle: distilled water + Tween-80): 0 of 5 | survivor count (dose: 64.0 mg/kg/injection, schedule: Q01DX009 (ip), vehicle: saline with Tween-80): 10 of 10
